Assay results reported in patent publication US11891362B1, “N2,N4-disubstituted pyrimidine-2,4-diamine compounds as antibacterial agents” (KING FAISAL UNIVERSITY, priority 2023, dated 2024).
Values after ≈ are worked out from the molar mass of the structure shown.

Columns and labels:
Assay in all cases: In vitro antibacterial activity, dilution susceptibility test (CLSI M07-A10)
Type in all cases: cell-based
[1] = test system: Staphylococcus aureus ATCC 29213; conditions: ATCC29213
Description: (§1) Enterococcus faecium resistant to VRE, and Gram-negative organisms including Klebsiella pneumonia, Escherichia coli, Pseudomonas aeruginosa.

[2] = test system: Escherichia coli MTCC 443; conditions: MTCC443
Description: as §1

[3] = test system: Enterococcus faecium ATCC 35667; conditions: ATCC35667
Description: as §1

[4] = test system: Staphylococcus aureus ATCC BAA-1556 (MERSA resistant); conditions: ATCCBAA1556
Description: as §1

[5] = test system: Bacillus subtilis MTCC 441; conditions: MTCC441
Description: as §1

[6] = test system: Staphylococcus epidermidis
Description: as §1

[7] = test system: Enterococcus faecium ATCC 51559 (VRE resistant)
Description: as §1

CN[C@H](CC(C)C)C(=O)N[C@H]1C(=O)N[C@@H](CC(N)=O)C(=O)N[C@H]2C(=O)N[C@H]3C(=O)N[C@H](C(=O)N[C@H](C(=O)O)c4cc(O)cc(O)c4-c4cc3ccc4O)[C@H](O)c3ccc(c(Cl)c3)Oc3cc2cc(c3O[C@@H]2O[C@H](CO)[C@@H](O)[C@H](O)[C@H]2O[C@H]2C[C@](C)(N)[C@H](O)[C@H](C)O2)Oc2ccc(cc2Cl)[C@H]1O [Vancomycin, reference compound]
MIC [1]: 1 µg/mL (≈ 0.69 µM)
MIC [2]: > 128 µg/mL
MIC [3]: 0.5 µg/mL (≈ 0.345 µM)
MIC [4]: 1 µg/mL (≈ 0.69 µM)
MIC [5]: 0.5 µg/mL (≈ 0.345 µM)
MIC [6]: 1 µg/mL (≈ 0.69 µM)
MIC [7]: > 128 µg/mL
